Source: PubChem BioAssay AID1224830 (NIAID, 2016)
This is one part, drawn at random, of about 18,000 deposited reagents. About 2,900 of them (16%) count as active. 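Calls are made per well; low scores hint the gene aids the LPS response, high scores that it dampens it.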 Repeated entries: four replicate wells of each siRNA pool. Reagent sequences are not shown.

Screen: 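Host factors that control LPS-induced TNF expression in human macrophages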 (primary screen)
Cells: human THP-1 monocytic leukaemia cells, TNF dual-luciferase reporter clone, PMA-differentiated to macrophage-like cells
Reagent: siRNA pool against human genes, 50 nM
Time to read-out: LPS for 4 h, given about 3 days after siRNA transfection
Conditions: bacterial LPS (TLR4 ligand), 10 ng/ml
Measurement: 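Ratio of firefly to renilla light, scaled to the plate median and expressed as a robust z-score per replicate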
Direction: TNF reporter robust z-score: higher = stronger TNF reporter response to LPS
Call rule: 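a well is active when its z-score exceeds 2.8 or falls below -1.5; control wells carry no call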

no.	target gene	TNF reporter robust z-score	Outcome
1	SCP2D1	1.67	inactive
2	SCP2D1	0.83	inactive
3	SCP2D1	1.14	inactive
4	SCP2D1	2.01	inactive
5	NLGN4X	2.79	inactive
6	NLGN4X	2.85	active
7	NLGN4X	3.49	active
8	NLGN4X	2.76	inactive
9	RPUSD2	1.36	inactive
10	RPUSD2	-0.24	inactive
11	RPUSD2	0.95	inactive
12	RPUSD2	0.19	inactive
13	MED23	1.76	inactive
14	MED23	0.38	inactive
15	MED23	1.98	inactive
16	MED23	2.24	inactive
17	CMA1	-0.54	inactive
18	CMA1	-0.42	inactive
19	CMA1	0.43	inactive
20	CMA1	1.89	inactive
21	PIGW	-0.49	inactive
22	PIGW	0.64	inactive
23	PIGW	1.41	inactive
24	PIGW	-0.34	inactive
25	ZMYM6	0.06	inactive
26	ZMYM6	-0.37	inactive
27	ZMYM6	-0.31	inactive
28	ZMYM6	-0.16	inactive
29	ACAD10	-1.1	inactive
30	ACAD10	-0.65	inactive
31	ACAD10	-1.34	inactive
32	ACAD10	-0.79	inactive
33	NUAK2	-0.19	inactive
34	NUAK2	0.37	inactive
35	NUAK2	4.18	active
36	NUAK2	1.57	inactive
37	STYXL2	-0.12	inactive
38	STYXL2	0	inactive
39	STYXL2	0.88	inactive
40	STYXL2	1.25	inactive
41	VASH1	-0.96	inactive
42	VASH1	-1.03	inactive
43	VASH1	-0.82	inactive
44	VASH1	-0.74	inactive
45	ANXA5	2	inactive
46	ANXA5	0.05	inactive
47	ANXA5	-0.04	inactive
48	ANXA5	2.04	inactive

Next results follow:
no.	target gene	TNF reporter robust z-score	Outcome
49	SNPH	-0.06	inactive
50	SNPH	0.26	inactive
51	SNPH	1.51	inactive
52	SNPH	0.81	inactive
53	CLCA3P	-0.55	inactive
54	CLCA3P	1.13	inactive
55	CLCA3P	0.66	inactive
56	CLCA3P	1.25	inactive
57	TSHB	-0.43	inactive
58	TSHB	-0.09	inactive
59	TSHB	-0.19	inactive
60	TSHB	0.15	inactive
61	PCBD1	3.33	active
62	PCBD1	0.63	inactive
63	PCBD1	0.64	inactive
64	PCBD1	0.33	inactive
65	LSAMP	0.61	inactive
66	LSAMP	0.4	inactive
67	LSAMP	0.84	inactive
68	LSAMP	0.57	inactive
69	CCR1	1.18	inactive
70	CCR1	1.13	inactive
71	CCR1	0.13	inactive
72	CCR1	2.02	inactive
73	ZFYVE26	-1.15	inactive
74	ZFYVE26	-0.74	inactive
75	ZFYVE26	-1.45	inactive
76	ZFYVE26	-0.64	inactive
77	OR51S1	-0.08	inactive
78	OR51S1	-0.21	inactive
79	OR51S1	0.49	inactive
80	OR51S1	0.07	inactive
81	DHRS12	0.56	inactive
82	DHRS12	-0.27	inactive
83	DHRS12	-0.58	inactive
84	DHRS12	0.61	inactive
85	MXI1	-0.79	inactive
86	MXI1	-0.84	inactive
87	MXI1	-0.71	inactive
88	MXI1	0.21	inactive
89	ITGAV	-1.33	inactive
90	ITGAV	-0.68	inactive
91	ITGAV	-1.14	inactive
92	ITGAV	0.5	inactive
93	NOMO2	-0.72	inactive
94	NOMO2	-0.67	inactive
95	NOMO2	-0.9	inactive
96	NOMO2	-0.83	inactive
97	ECSCR	-0.71	inactive
98	ECSCR	-0.78	inactive
99	ECSCR	-1.48	inactive
100	ECSCR	-0.79	inactive
101	SLC38A8	-0.44	inactive
102	SLC38A8	-0.02	inactive
103	SLC38A8	-1.26	inactive
104	SLC38A8	-1.05	inactive
105	ZNF624	-0.46	inactive
106	ZNF624	0.56	inactive
107	ZNF624	-0.13	inactive
108	ZNF624	1	inactive
109	NCBP1	3	active
110	NCBP1	0.77	inactive
111	NCBP1	0.05	inactive
112	NCBP1	1.21	inactive
